Patent publication US20260201043A1 (INSTITUT NATIONAL DE LA RECHERCHE SCIENTIFIQUE, published 2026)
Results are given in words; binding and its absence hold for the method and conditions named. Some results given as binding are weak or reduced against the parent protein; the word gives no strength.

Protein sequences, listed by entry. Tags and fused reporters are not part of them. Lines headed by an entry give the natural chain unless they say otherwise; changes in a name come on top. Chains listed by the source or under a name are the forms on record and can include a tag or linker.
recombinant human galectin-9 (O00182, form named): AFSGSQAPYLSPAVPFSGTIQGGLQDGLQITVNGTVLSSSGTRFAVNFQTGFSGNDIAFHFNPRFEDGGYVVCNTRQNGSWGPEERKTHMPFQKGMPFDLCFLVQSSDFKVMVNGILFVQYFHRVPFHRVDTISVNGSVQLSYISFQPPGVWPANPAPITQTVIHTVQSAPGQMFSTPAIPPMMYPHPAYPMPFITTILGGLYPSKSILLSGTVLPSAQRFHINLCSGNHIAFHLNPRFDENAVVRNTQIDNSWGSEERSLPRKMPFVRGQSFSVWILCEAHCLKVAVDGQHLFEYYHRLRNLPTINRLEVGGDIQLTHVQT

Columns and labels:
[1] = biological target: recombinant C-terminal domain of human GAL-9 (human) (UniProt O00182); assay: ELISA: sdAb immobilized at 1 µM, 5 µM GAL-9C
[2] = biological target: recombinant human galectin-9 (human) (UniProt O00182); assay: phage ELISA on biotinylated His-GAL-9
[3] = biological target: recombinant human galectin-9 (human) (UniProt O00182); assay: phage ELISA, 384-well plate, anti-M13-HRP
[4] = biological target: recombinant human galectin-9 (human) (UniProt O00182); assay: ELISA: sdAb immobilized at 1 µM, increasing GAL-9, anti-GAL-9 detection
[5] = biological target: recombinant human galectin-9 (human) (UniProt O00182); assay: ELISA: sdAb immobilized at 1 µM, 5 µM galectin
[6] = biological target: recombinant N-terminal domain of human GAL-9 (human) (UniProt O00182); assay: ELISA: sdAb immobilized at 1 µM, 5 µM GAL-9N

Measured: binding

B1: G9N2 (VHH, not shown: small tags and cut ends)
VHH: EVQLQASGGGFVQPGGSLRLSCAASGSTSADSTMGWFRQAPGKEREFVSAISENNGADRYYADSVKGRFTISRDNSKNTVYLQMNSLRAEDTATYYCAYWKIAYTKQYEFLRYWGQGTQVTVSS
binds: all assays above

B2: G9N3 (VHH)
VHH: EVQLQASGGGFVQPGGSLRLSCAASGDGSGWDIMGWFRQAPGKEREFVSAISRHDTTYSYYADSVKGRFTISRDNSKNTVYLQMNSLRAEDTATYYCATIPASWNKSYWGQGTQVTVSS
notes: Synthetic humanized sdAb; on M13 phage in the screening ELISA, purified with His and cMyc tags and immobilized in wells otherwise; also called GAL-9-specific sdAb G9N3; not shown: 6xHis and cMyc tags from vector pHEN2
binds: [2] | [3] | [4] | [5]

B3: G9N4 (VHH)
VHH: EVQLQASGGGFVQPGGSLRLSCAASGGTWRWTIMGWFRQAPGKEREFVSAISRTNSEYQYYADSVKGRFTISRDNSKNTVYLQMNSLRAEDTATYYCAEPTAVWADKGQEMQSYWGQGTQVTVSS
notes: Synthetic humanized sdAb; on M13 phage in the screening ELISA, purified with His and cMyc tags and immobilized in wells otherwise; also called GAL-9-specific sdAb G9N4; not shown: 6xHis and cMyc tags from vector pHEN2
binds: [2] | [3] | [4]
